Measurements: PubChem BioAssay AID540256 (National Center for Advancing Translational Sciences (NCATS), 2011)
Hit rate of the full screen: of about 300,000 compounds, about 3,700 (1.2%) were called active. Inconclusive means that the source gave no clear call. Such entries were picked first, then a sample of the others. The call rests on the fitted dose curve; tested in HEK293 cells. Potencies of inconclusive entries are doubtful fits and often do not repeat.

assay: qHTS for Inhibitors of binding or entry into cells for Lassa Virus; settings: Lassa virus pseudotype entry inhibition, cell reporter; series mostly up to 37.9 µM; further: nearly all actives have a fitted effect of over 50% in size
Potency means the concentration at half of the fitted maximal effect.

SMILES	Potency
COc1ccc(-n2nc(C(=O)NCC(=O)N3CCN(c4cccc(Cl)c4)CC3)c3ccccc3c2=O)c(OC)c1	inactive
Cc1cc(C=C2C(=O)c3ccccc3C2=O)c(C)n1-c1ccc(C(=O)O)cc1	inconclusive: 0.562 µM [inhibitor, full curve, poor fit]
Cc1noc(C)c1COc1ccc(C(=O)OCC(=O)Nc2ccc3c(c2)OCO3)cc1	inactive
C=CCn1c(N)c(C(=O)OC(C)CC)c2nc3ccccc3nc21 (stereo not drawn)	inactive
CCOc1cc(N2CCOCC2)c(OCC)cc1NC(=O)C(C)Oc1ccccc1 (stereo not drawn)	inconclusive: 8.91 µM [inhibitor, partial curve]
O=c1[nH]c(=O)n(Cc2ccco2)c(O)c1C=NC1CCN(Cc2ccccc2)CC1	inactive
CCOc1ccc(C(=O)N(Cc2nc(-c3cccc(C)c3)no2)C(C)C)cc1	inconclusive: 10 µM [inhibitor, partial curve, poor fit]
COCCn1c(SC(C)C(=O)Nc2ccc(N3CCOCC3)cc2)nnc1-c1ccncc1 (stereo not drawn)	inconclusive: 1.41 µM [inhibitor, partial curve, poor fit]
CC(Nc1oc(-c2ccccc2)nc1C(C)(C)C)c1ccccc1 (stereo not drawn)	inconclusive: 0.841 µM [inhibitor, single point]
O=C(Oc1ccccc1C(=S)N1CCOCC1)c1cccc([N+](=O)[O-])c1	inactive
CCN(CC)c1ccc(/C=N/NC(=O)c2ccccn2)cc1	active: 11.2 µM
Cn1sc(=O)c2cc(S(=O)(=O)NC3CC3)ccc21	inconclusive: 1.12 µM [inhibitor, full curve, poor fit]
Cc1ccc(-n2c(SCC(=O)Nc3cccc(S(N)(=O)=O)c3)nc3ccccc32)cc1	inconclusive: 7.94 µM [inhibitor, partial curve, poor fit]
CCOCCN1CCN(C2c3ccccc3CSc3ccccc32)CC1 (stereo not drawn)	inconclusive: 15.8 µM [inhibitor, single point]
Cc1ccc2[nH]c(C(=O)N3CCOCC3)cc2c1	inactive
CN1CCc2c(sc(NC(=O)c3ccc(S(=O)(=O)N4CCCCCC4)cc3)c2C(N)=O)C1	inconclusive: 35.5 µM [inhibitor, single point]
Cc1ccc(-c2nnc(SCC(=O)NC(C)(C)C)nc2-c2ccc(C)cc2)cc1	inconclusive: 3.55 µM [inhibitor, full curve]
COc1ccc(C2(C(=O)N3CCC(n4nc(-c5ccccc5)oc4=O)CC3)CC2)cc1	inconclusive: 1.12 µM [inhibitor, partial curve, poor fit]
C/C(=N\NC(=O)c1cccc2ccccc12)c1cccnc1	inactive
COc1ccc(C(=O)CSc2nc(C)cc(=O)[nH]2)cc1	inactive
COc1cccc(-c2nnc(SCc3nc4ccccc4[nH]3)n2N)c1	inconclusive: 3.55 µM [activator, partial curve]
COc1ccc(-c2nc3ccncc3[nH]2)cc1OC	inconclusive: 0.164 µM [activator, full curve, poor fit]
O=C(COc1ccccc1Cl)NC(=S)Nc1cccc(NC(=O)c2ccccc2Cl)c1	inconclusive: 2.31 µM [activator, full curve]

SMILES	Potency
COc1ccc(OCC(=O)N2CCC(Cc3ccccc3)CC2)cc1	inconclusive: 7.08 µM [inhibitor, full curve, poor fit]
Cc1ccc(NS(=O)(=O)c2c(C(=O)N3CCCC3)c(C)n(C)c2C)cc1	inconclusive: 14.1 µM [activator, single point]
Cc1ccc([C@H]2C[C@H](n3cc(C4CC4)nn3)[C@@H](O)CN2CC2CCCCC2)cc1	inconclusive: 4.99 µM [inhibitor, full curve, poor fit]
COc1ccc(OC)c(CNC(=O)C2CCN(S(=O)(=O)N3CCCC3)CC2)c1	inactive
Cc1ccc(Sc2ccc(N3CCCC(C(=O)Nc4ccc(F)cc4)C3)nn2)cc1 (stereo not drawn)	inconclusive: 7.08 µM [inhibitor, full curve, poor fit]
CCCS(=O)(=O)c1nc(S(=O)(=O)c2ccc(C)cc2)c(NCCCOC(C)C)s1	inconclusive: 8.91 µM [inhibitor, partial curve, poor fit]
c1ccc(-c2nnc(-c3ccccc3)nn2)cc1	inconclusive: 2.82 µM [activator, partial curve, poor fit]
Clc1c(-c2nnc3n2CCCCC3)sc2ccccc12	inactive
Cc1ccc(CN2CCN(/N=C/C(Br)=C\c3ccccc3)CC2)cc1	inconclusive: 1.26 µM [inhibitor, single point]
O=C(Nc1c[nH]c(=O)[nH]c1=O)c1ccc2c(c1)C(=O)N(c1cccc([N+](=O)[O-])c1)C2=O	inconclusive: 35.5 µM [activator, single point]
CC(=O)c1ccccc1NC(=O)COC(=O)C1=NN(c2ccccc2)C(=O)CC1	inactive
COc1ccc(NC(=O)COc2ccc(C)c(C)c2)cc1S(=O)(=O)N1CCCCC1	inconclusive: 8.91 µM [inhibitor, partial curve]
CS(=O)(=O)N1CCN(c2ccccc2NC(=O)c2cccnc2Cl)CC1	inconclusive: 2.51 µM [inhibitor, partial curve, poor fit]
COc1cccc(-c2cc(=O)c3cc(NC(C)=O)ccc3[nH]2)c1	inconclusive: 18.4 µM [inhibitor, single point]
COc1ccc(NC(=O)CSc2ccccc2)cc1S(=O)(=O)N1CCOCC1	inactive
CC1CCN(C(=O)CN2C(=O)NC3(CCCCCC3)C2=O)CC1	inactive
CC(Sc1nnnn1-c1ccccc1)C(=O)Nc1ccccc1-c1ccccc1 (stereo not drawn)	inactive
COc1ccc(C(=O)n2nc(-c3cccnc3)nc2NCc2ccccc2)cc1OC	inconclusive: 25.1 µM [activator, single point]
Cc1cc(C)n2nc(C(=O)Nc3ccc4c(c3)OCO4)cc2n1	inconclusive: 0.92 µM [activator, partial curve, poor fit]
Cc1cccc(NC(=O)COc2ccc(Br)cc2/C=N/O)c1	inconclusive: 2.24 µM [activator, partial curve, poor fit]
COc1ccc(CCNC(=O)C(=O)NCC(c2cccs2)S(=O)(=O)c2cccs2)cc1 (stereo not drawn)	inconclusive: 11.2 µM [inhibitor, partial curve, poor fit]
Cc1cccc(NC(=O)Cc2nc(-c3c[nH]c(C(=O)N4CCCC4)c3)cs2)c1	inconclusive: 14.1 µM [inhibitor, single point]
NC(=O)c1c(NC(=O)CN2CCCC2)sc2c1CCCC2	inactive

SMILES	Potency
CCOc1ccc(CNC(=O)CCCn2c(=O)c3cccn3c3ccccc32)cc1	inconclusive: 35.5 µM [inhibitor, single point]
Cc1ccc(CN2CCN(Cc3cccc(-n4cccn4)c3)CC2CCO)cc1 (stereo not drawn)	inactive
N/C(=N\OC(=O)Cc1cccs1)c1ccc([N+](=O)[O-])cc1	inconclusive: 6.31 µM [inhibitor, partial curve, poor fit]
CCc1ccc(C(=O)COC(=O)[C@@H](NC(N)=O)[C@@H](C)CC)cc1	inactive
CCOC(=O)c1csc(COc2ccc(OC)cc2)n1	inconclusive: 8.91 µM [inhibitor, single point]
Cc1cccc(NC(=O)CSc2nnc(CNC(=O)c3ccc(S(=O)(=O)N(C)C)cc3)n2-c2cccc(C)c2)c1	active: 14.1 µM
N/C(=N\OC(=O)c1ccccc1Cl)c1ccc(Cl)cc1	inconclusive: 11.2 µM [inhibitor, partial curve, poor fit]
Cc1ccc(S(=O)(=O)C2(C(=O)N3CCCCC3C)CC2)cc1 (stereo not drawn)	inactive
Cc1ccc(OC(=O)COc2ccccc2C)c(-n2nc3ccccc3n2)c1	inconclusive: 4.61 µM [activator, single point]
COc1ccc(NC(=O)Cn2c(=O)n(CCCCCC(=O)NCc3ccc4c(c3)OCO4)c(=O)c3sccc32)cc1Cl	inactive
CCOC(=O)c1c(C)oc2ccc(O)c(CN3CCCCC3)c12	inconclusive: 16.4 µM [inhibitor, single point]
O=C1c2ccsc2SCCN1Cc1cccc(F)c1	inactive
CCCN(CC1CC1)C(=S)NC(=O)c1cc(Br)ccc1Cl	inactive
Cc1ccc(CNCc2cccnc2)cc1	inconclusive: 7.3 µM [inhibitor, partial curve, poor fit]
Cc1cccc(N(CC(=O)NC2CCCC2)C(=O)CCC(=O)Nc2cc(C)on2)c1	inconclusive: 0.794 µM [inhibitor, full curve, poor fit]
Cc1ccc(Cn2c(C)c3cnn(CC(=O)O)c(=O)c3c2C)cc1	inactive
O=C(NCCc1ccccc1)c1ccc(-c2ccccc2C(F)(F)F)o1	inconclusive: 14.1 µM [activator, partial curve, poor fit]
C=CC[n+]1c(-c2ccc(Cl)cc2Cl)csc1Nc1ccc(NC(C)=O)cc1	active: 2.82 µM
COc1ccc(C(C)(C)C)cc1S(=O)(=O)n1ccnc1C	inconclusive: 3.26 µM [inhibitor, partial curve, poor fit]
O=C1OC(c2ccccc2)C2(CCCC2)C(=O)C12CCCC2 (stereo not drawn)	inconclusive: 14.6 µM [activator, partial curve, poor fit]
N#Cc1ccc(-c2ccccc2)nc1SCC(=O)c1cccc(Cl)c1	inconclusive: 35.5 µM [inhibitor, single point]
O=C(NCc1cccnc1)/C(=C/c1ccc(-c2ccc(Cl)cc2)o1)S(=O)(=O)c1ccccc1	active: 18.3 µM

Exported in markdown: part of the list above.

| SMILES | Potency |
| --- | --- |
| Cc1ccc(S(=O)(=O)C2(C(=O)N3CCCCC3C)CC2)cc1 (stereo not drawn) | inactive |
| Cc1ccc(OC(=O)COc2ccccc2C)c(-n2nc3ccccc3n2)c1 | inconclusive: 4.61 µM [activator, single point] |
| COc1ccc(NC(=O)Cn2c(=O)n(CCCCCC(=O)NCc3ccc4c(c3)OCO4)c(=O)c3sccc32)cc1Cl | inactive |
| CCOC(=O)c1c(C)oc2ccc(O)c(CN3CCCCC3)c12 | inconclusive: 16.4 µM [inhibitor, single point] |
